The other results are listed elsewhere or left out.

Chains of the proteins cited; added tags and fusions are not shown. Lines headed by an entry give the natural chain unless they say otherwise; changes in a name come on top.
UniProt Q9NRY4: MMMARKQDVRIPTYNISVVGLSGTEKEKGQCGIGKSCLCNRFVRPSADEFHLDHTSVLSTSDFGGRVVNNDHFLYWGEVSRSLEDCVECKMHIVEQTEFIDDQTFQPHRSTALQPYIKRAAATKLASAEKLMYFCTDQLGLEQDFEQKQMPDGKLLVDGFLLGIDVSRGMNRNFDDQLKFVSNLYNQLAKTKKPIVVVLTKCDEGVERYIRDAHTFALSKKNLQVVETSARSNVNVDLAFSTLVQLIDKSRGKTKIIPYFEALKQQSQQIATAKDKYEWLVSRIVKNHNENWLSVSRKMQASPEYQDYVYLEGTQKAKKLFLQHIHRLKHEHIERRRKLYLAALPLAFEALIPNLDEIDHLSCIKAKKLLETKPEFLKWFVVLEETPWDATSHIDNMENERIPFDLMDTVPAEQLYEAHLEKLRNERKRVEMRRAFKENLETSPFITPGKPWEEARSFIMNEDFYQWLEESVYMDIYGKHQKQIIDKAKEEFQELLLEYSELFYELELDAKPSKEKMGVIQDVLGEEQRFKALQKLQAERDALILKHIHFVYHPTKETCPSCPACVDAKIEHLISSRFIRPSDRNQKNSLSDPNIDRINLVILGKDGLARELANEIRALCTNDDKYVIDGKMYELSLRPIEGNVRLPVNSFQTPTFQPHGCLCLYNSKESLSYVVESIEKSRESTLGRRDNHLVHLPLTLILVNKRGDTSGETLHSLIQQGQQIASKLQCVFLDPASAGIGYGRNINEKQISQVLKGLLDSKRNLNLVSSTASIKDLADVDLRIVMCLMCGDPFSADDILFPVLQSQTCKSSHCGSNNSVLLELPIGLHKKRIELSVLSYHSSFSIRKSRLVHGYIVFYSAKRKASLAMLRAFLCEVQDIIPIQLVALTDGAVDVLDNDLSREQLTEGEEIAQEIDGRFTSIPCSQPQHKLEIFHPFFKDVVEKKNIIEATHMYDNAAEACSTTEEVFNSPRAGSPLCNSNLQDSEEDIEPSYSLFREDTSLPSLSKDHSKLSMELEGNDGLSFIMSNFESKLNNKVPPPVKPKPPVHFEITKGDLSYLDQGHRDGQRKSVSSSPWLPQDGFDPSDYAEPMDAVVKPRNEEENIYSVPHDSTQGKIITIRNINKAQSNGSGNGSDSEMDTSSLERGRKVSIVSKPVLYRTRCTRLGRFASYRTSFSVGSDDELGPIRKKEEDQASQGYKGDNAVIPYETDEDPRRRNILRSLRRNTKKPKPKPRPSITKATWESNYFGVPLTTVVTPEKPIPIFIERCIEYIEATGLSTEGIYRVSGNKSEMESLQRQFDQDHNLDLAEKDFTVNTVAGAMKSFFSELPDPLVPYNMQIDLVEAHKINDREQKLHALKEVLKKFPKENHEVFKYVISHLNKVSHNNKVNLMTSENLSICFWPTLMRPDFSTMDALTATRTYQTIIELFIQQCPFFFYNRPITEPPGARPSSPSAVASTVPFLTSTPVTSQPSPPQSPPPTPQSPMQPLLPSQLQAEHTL
UniProt Q13795: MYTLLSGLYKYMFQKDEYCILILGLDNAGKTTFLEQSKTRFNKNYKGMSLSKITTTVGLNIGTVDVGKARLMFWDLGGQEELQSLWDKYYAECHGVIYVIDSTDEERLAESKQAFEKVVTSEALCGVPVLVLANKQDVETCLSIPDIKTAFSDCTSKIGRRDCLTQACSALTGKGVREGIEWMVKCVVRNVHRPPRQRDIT
UniProt Q4KMQ2: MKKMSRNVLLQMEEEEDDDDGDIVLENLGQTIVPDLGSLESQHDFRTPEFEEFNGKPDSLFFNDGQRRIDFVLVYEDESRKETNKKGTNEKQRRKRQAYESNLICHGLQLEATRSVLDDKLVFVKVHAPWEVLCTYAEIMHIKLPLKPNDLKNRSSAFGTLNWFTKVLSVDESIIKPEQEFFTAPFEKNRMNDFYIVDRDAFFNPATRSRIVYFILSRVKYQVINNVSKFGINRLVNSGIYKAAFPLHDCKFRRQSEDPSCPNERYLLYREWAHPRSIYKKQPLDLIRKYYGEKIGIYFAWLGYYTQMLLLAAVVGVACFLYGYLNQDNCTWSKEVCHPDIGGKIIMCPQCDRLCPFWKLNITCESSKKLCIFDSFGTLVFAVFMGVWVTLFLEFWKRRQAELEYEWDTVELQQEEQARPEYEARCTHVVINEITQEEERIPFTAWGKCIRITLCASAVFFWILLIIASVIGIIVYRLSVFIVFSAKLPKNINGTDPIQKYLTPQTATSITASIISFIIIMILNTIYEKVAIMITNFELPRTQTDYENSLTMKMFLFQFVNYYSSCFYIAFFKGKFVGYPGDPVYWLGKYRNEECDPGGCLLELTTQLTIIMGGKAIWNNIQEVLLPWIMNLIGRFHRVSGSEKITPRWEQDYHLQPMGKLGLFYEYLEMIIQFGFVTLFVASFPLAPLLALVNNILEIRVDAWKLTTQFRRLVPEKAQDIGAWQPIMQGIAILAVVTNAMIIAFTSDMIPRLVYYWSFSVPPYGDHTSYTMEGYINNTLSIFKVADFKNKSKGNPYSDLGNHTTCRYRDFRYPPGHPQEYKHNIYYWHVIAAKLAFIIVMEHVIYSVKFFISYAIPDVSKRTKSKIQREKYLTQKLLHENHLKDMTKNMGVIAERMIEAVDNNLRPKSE
UniProt P42331: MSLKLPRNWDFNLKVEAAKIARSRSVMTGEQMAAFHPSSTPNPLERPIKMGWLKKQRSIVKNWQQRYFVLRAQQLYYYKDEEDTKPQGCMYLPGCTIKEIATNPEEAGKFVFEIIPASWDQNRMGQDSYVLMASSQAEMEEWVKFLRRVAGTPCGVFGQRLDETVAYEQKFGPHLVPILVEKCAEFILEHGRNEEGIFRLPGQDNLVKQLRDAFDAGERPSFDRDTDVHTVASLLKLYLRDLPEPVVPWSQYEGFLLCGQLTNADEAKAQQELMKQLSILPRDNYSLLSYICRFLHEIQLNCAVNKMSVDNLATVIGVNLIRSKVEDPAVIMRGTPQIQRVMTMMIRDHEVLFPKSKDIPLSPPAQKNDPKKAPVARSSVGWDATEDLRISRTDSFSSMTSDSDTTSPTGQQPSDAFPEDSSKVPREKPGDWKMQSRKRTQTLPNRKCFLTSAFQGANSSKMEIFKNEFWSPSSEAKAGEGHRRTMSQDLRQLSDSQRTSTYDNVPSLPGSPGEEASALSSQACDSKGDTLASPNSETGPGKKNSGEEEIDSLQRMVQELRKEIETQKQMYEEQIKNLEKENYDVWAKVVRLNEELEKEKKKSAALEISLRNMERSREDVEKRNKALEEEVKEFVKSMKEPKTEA
UniProt P58335, whole entry, looked up: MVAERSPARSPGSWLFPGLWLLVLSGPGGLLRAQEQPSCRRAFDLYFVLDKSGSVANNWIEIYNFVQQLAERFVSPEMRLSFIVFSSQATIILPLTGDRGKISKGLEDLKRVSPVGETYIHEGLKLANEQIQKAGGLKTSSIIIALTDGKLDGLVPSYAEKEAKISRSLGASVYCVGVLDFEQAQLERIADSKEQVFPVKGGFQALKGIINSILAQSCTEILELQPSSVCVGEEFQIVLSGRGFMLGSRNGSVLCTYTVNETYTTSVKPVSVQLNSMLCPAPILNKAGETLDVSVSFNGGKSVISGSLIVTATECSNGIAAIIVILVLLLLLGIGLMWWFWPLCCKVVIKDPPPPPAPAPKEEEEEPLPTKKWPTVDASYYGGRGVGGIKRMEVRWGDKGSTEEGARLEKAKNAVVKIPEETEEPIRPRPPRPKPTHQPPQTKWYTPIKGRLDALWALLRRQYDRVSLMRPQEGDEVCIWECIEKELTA
UniProt Q9NP61: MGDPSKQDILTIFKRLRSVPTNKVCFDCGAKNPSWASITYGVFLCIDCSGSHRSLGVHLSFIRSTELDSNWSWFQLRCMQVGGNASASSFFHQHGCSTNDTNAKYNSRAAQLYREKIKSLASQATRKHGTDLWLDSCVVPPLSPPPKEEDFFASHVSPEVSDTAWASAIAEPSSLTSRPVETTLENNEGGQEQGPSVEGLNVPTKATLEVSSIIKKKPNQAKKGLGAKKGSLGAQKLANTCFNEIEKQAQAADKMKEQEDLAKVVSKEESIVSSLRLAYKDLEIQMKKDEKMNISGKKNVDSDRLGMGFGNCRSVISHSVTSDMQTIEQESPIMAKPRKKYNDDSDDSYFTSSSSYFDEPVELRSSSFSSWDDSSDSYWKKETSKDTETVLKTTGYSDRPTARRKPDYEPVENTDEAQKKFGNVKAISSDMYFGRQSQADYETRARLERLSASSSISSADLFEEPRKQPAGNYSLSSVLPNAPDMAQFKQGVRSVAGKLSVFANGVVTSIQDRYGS
UniProt P98171: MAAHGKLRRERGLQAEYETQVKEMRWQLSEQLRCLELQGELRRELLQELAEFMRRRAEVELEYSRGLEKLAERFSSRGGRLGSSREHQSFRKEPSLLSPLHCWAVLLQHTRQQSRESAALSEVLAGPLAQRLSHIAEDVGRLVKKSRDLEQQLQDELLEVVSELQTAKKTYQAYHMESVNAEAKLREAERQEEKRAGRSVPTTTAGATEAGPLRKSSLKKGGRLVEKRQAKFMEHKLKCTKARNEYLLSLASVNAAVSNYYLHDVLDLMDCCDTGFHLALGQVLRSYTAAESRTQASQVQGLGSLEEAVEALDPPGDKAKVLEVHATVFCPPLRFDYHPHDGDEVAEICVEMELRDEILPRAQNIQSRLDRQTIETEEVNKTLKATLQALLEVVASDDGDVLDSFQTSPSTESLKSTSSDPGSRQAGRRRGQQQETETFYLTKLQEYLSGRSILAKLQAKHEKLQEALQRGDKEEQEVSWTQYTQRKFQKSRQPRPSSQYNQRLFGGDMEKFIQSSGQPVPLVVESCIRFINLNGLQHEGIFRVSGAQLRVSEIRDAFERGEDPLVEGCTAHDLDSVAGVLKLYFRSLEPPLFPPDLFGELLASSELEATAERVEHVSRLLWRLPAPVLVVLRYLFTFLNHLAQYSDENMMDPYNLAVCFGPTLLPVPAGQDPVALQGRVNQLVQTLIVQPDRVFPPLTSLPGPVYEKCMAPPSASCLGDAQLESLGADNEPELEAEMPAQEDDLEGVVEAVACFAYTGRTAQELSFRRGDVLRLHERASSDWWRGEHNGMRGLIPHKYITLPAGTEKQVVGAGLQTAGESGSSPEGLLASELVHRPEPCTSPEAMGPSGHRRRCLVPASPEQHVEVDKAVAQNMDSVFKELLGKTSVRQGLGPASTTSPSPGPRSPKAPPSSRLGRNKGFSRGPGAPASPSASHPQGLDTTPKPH
UniProt Q96GX9: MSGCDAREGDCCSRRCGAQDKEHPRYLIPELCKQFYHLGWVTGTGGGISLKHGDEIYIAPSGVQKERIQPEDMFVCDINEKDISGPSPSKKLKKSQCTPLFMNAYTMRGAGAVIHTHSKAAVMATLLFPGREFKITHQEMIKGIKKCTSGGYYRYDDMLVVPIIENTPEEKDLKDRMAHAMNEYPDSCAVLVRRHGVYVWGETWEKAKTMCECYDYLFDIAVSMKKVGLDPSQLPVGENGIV
UniProt P02749: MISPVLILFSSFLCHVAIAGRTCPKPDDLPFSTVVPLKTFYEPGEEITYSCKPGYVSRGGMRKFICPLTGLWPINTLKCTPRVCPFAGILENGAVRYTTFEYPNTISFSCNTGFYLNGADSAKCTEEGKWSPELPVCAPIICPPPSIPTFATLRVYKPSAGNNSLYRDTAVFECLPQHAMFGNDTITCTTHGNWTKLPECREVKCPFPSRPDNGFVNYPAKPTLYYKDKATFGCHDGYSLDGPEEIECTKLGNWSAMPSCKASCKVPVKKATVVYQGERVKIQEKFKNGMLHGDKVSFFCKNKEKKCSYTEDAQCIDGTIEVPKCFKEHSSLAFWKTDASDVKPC
UniProt P39687: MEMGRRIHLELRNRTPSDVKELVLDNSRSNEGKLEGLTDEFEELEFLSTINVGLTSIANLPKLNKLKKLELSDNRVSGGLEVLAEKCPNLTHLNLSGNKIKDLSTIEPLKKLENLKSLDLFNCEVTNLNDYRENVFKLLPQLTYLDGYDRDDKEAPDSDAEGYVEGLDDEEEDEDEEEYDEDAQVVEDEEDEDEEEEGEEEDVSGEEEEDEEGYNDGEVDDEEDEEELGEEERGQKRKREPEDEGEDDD
UniProt P48444: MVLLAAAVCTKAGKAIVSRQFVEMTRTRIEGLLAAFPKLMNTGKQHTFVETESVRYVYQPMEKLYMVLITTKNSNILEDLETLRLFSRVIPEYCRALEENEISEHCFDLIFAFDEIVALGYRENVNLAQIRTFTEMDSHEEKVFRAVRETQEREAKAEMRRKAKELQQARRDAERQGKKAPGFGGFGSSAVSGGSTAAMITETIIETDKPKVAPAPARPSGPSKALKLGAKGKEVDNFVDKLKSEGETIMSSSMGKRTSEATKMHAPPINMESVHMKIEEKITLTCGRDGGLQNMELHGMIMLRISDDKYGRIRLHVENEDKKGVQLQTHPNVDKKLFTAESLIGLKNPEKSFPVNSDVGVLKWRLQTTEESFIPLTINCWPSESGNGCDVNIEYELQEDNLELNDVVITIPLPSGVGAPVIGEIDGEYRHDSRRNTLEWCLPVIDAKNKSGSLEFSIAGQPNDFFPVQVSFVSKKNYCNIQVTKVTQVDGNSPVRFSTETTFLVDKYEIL

Compound in the assay: C#Cc1cccc(Nc2ncnc3cc(OCCOC)c(OCCOC)cc23)c1 [erlotinib]
The experiment in a line: log2 fold change, soluble protein after heating vs DMSO (PISA); higher = thermal stabilisation; K562 cells, 10 uM, 30 min; active = over 0.2 and 3.5 SD of the protein, either way, in both replicates (recomputed). A digest of the protocol:
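K562 cells at 2×10^6 cells/mL were given 10 μM compound for 30 min. Aliquots then went through 3 min of heating across 48°C-58°C, were pooled, and were extracted in PBS with 0.5% NP-40 at 4°C, and the supernatant after 21,000xg for 90 min was quantified by TMTpro 16plex LC-MS/MS with channel sums equalised. Thermal stability relative to control samples, from duplicates, is given as log2 fold change.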
With ARHGAP35 (UniProt Q9NRY4), the log2 fold change is inactive: 0.053.
In the case of ANKH (UniProt Q9HCJ1), the log2 fold change is inactive: 0.177.
The same measure for APOL2 (UniProt J3KQL8): inactive: 0.02.
Under ARHGAP18 (UniProt Q8N392) stands inactive: 0.063; under ARHGAP17 (UniProt Q68EM7), inactive: 0.034; under AP1B1 (UniProt Q10567), inactive: 0.047.
For AP4B1 (UniProt Q9Y6B7), the log2 fold change was inactive: -0.055.
The same measure for ARFRP1 (UniProt Q13795): inactive: -0.018; for APOBEC3C (UniProt Q9NRW3): inactive: -0.097; for APTX (UniProt Q7Z2E3): inactive: 0.065.
The same measure for ANO6 isoform 2 (UniProt Q4KMQ2): inactive: 0.024; for ANK2 (UniProt Q01484): inactive: -0.089; for ANXA7 (UniProt P20073): inactive: -0.045.
Under AQR (UniProt O60306) stands inactive: -0.061; under ANPEP (UniProt P15144), inactive: 0.045; under ARHGAP25 isoform 4 (UniProt P42331), inactive: 0.07.
On to AP1M1 (UniProt Q9BXS5), for which the log2 fold change was inactive: 0.012.
Under ARHGEF12 (UniProt Q9NZN5) stands inactive: 0.012.
Under ARG2 (UniProt P78540) stands inactive: -0.036; under APC (UniProt P25054), inactive: -0.011.
In the case of APPL1 (UniProt Q9UKG1), the log2 fold change is inactive: -0.049.
The same measure for ANTXR2 isoform 4 (UniProt P58335): inactive: -0.004; for ANAPC7 (UniProt Q9UJX3): inactive: -0.011; for ARFGAP1 (UniProt Q8N6T3): inactive: -0.017.
Under ARHGEF7 isoform 5 (UniProt Q14155) stands inactive: 0.17; under ARFGAP3 (UniProt Q9NP61), inactive: -0.034; under ANP32E (UniProt Q9BTT0), inactive: 0.211.
Under ARHGAP4 isoform 2 (UniProt P98171) stands inactive: 0.042.
For the target AP3M1 (UniProt Q9Y2T2), the log2 fold change was inactive: 0.016.
For APH1A (UniProt Q96BI3), the log2 fold change is inactive: 0.
The same measure for APIP (UniProt Q96GX9): inactive: -0.097; for APEH (UniProt P13798): inactive: -0.034; for APOH (UniProt P02749): inactive: -0.214.
The same measure for AREG (UniProt P15514): inactive: -0.296.
Under ANKRD52 (UniProt Q8NB46) stands inactive: 0.01; under APAF1 (UniProt O14727), inactive: 0.207.
Regarding AP4S1 (UniProt Q9Y587), the log2 fold change is inactive: -0.014.
As to ANP32A (UniProt P39687), the log2 fold change was inactive: -0.005.
Regarding ARCN1 (UniProt P48444), the log2 fold change was inactive: -0.03.
